Some of the results follow. Most entries show no effect beyond the scatter of the controls.

By UniProt entry, the sequences of proteins in these tests, tags left out. Where a name states a change or a piece, a line headed by the entry shows the natural chain unless it says otherwise.
UniProt Q3T9X0: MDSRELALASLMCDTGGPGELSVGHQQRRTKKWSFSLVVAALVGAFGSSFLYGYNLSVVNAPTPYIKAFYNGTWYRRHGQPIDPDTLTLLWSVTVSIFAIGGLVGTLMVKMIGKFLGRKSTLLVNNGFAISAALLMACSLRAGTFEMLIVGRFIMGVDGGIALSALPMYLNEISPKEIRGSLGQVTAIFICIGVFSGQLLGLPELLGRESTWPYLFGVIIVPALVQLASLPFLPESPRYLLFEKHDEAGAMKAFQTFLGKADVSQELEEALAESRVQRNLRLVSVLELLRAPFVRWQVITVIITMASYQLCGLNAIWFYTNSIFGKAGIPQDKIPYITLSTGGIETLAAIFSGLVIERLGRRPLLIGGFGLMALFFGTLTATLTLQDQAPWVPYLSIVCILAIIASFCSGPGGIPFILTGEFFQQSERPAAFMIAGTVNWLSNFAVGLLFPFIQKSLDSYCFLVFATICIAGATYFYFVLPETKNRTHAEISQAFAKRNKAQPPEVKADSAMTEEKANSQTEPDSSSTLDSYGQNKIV
UniProt Q06986: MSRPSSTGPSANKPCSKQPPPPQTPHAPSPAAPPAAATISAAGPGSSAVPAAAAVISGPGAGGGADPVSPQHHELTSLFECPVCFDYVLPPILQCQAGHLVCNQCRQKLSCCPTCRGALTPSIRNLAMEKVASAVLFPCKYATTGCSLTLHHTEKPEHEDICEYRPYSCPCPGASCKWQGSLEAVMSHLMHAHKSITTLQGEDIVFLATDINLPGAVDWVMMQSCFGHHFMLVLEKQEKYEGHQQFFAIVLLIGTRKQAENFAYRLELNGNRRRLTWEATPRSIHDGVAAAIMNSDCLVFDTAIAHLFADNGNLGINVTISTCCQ
UniProt Q3TIV5: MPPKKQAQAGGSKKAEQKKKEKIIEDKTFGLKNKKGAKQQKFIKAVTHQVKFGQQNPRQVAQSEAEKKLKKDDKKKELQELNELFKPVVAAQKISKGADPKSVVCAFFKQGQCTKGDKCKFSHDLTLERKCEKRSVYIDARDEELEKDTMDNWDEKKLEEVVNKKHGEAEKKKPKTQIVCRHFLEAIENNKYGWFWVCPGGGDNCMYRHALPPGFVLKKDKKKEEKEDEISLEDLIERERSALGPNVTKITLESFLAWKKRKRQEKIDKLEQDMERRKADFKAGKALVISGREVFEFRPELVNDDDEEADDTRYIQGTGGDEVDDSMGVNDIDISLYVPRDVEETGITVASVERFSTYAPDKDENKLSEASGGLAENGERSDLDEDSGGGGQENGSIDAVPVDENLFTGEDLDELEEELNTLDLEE
UniProt Q07079, whole entry: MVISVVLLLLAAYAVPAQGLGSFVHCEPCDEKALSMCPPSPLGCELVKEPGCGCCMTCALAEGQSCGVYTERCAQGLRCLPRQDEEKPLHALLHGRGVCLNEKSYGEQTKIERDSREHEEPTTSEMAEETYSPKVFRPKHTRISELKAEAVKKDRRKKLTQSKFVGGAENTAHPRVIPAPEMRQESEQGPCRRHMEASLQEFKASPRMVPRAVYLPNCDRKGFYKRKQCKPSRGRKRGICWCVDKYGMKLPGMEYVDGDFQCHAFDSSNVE
UniProt Q3TES0: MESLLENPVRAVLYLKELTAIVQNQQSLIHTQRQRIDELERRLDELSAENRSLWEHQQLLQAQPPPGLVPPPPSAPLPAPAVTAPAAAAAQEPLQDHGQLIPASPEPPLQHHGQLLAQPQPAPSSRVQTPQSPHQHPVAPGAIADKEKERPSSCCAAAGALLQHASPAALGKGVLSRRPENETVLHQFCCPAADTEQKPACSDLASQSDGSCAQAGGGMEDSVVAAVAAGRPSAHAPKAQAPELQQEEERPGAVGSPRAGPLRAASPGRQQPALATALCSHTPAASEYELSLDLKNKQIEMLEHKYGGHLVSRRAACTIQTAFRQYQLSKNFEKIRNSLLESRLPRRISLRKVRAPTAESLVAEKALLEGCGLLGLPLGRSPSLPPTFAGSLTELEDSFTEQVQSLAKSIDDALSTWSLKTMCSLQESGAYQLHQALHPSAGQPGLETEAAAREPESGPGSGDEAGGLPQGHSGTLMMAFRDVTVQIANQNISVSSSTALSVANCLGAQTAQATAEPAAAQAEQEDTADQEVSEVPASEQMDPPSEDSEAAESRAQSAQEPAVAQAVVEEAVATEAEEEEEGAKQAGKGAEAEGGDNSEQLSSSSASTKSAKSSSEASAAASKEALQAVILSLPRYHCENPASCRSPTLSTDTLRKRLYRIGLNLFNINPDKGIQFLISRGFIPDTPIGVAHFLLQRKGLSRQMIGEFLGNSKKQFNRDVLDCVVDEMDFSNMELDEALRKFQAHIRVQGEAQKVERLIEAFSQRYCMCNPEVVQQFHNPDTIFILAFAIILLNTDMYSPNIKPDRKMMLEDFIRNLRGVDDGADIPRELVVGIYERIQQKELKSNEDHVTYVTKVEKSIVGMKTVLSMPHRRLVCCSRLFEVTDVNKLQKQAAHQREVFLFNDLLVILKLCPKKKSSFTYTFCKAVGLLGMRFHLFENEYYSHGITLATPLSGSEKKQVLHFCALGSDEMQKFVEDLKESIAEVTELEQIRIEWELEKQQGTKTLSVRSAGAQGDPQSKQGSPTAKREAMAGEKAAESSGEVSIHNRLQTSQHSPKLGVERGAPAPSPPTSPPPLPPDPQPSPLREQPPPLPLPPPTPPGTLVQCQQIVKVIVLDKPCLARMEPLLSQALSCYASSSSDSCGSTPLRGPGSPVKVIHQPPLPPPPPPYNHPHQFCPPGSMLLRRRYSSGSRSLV
UniProt Q31125: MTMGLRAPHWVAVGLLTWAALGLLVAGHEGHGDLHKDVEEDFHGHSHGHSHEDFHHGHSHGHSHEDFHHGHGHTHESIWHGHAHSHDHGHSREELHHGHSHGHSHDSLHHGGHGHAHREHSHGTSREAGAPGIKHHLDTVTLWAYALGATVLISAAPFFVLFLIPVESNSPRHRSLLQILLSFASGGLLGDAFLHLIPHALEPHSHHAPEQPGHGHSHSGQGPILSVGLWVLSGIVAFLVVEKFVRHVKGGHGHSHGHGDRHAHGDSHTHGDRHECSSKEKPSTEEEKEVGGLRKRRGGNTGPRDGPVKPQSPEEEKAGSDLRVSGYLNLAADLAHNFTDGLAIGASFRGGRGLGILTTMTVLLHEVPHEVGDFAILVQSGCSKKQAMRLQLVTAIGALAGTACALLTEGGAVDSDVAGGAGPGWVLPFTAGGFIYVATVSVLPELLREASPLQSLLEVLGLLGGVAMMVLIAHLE
UniProt Q33DR2: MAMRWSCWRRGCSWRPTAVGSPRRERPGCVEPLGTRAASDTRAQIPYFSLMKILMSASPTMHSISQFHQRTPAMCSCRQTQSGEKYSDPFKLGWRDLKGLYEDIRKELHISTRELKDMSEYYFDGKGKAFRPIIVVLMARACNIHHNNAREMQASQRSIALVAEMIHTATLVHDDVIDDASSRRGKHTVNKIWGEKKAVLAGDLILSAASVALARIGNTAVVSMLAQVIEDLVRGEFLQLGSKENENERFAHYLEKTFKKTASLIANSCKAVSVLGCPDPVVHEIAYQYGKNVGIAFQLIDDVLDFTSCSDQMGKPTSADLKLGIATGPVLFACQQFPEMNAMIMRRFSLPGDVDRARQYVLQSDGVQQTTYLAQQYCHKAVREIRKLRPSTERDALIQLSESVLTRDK
UniProt Q05AH6: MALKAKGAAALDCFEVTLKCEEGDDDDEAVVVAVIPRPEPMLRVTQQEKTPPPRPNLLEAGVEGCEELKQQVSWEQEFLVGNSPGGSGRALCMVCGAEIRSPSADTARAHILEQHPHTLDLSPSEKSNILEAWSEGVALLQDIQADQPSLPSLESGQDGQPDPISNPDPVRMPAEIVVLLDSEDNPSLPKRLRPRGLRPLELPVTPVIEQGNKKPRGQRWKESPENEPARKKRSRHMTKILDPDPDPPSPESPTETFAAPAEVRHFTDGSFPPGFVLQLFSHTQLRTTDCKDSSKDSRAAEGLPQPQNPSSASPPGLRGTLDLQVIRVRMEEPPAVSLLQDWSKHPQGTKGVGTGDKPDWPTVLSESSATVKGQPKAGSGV
UniProt Q3U0K8: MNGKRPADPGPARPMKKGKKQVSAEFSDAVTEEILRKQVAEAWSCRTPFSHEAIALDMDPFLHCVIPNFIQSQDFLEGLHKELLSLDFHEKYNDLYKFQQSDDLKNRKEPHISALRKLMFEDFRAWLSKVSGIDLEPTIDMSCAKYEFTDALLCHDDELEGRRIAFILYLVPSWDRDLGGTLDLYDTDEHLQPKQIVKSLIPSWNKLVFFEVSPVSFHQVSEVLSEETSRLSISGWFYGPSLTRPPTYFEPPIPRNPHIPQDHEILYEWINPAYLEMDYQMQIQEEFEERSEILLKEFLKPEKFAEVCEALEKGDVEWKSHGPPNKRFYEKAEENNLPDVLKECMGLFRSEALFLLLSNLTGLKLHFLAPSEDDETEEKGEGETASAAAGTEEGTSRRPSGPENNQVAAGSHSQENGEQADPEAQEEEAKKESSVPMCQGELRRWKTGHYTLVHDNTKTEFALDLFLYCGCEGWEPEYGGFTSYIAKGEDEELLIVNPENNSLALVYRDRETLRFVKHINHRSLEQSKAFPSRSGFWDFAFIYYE
UniProt Q3U276: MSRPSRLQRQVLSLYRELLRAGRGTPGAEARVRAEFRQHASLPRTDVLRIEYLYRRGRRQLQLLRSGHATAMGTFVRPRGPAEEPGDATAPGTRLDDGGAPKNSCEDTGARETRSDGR
UniProt Q3U186: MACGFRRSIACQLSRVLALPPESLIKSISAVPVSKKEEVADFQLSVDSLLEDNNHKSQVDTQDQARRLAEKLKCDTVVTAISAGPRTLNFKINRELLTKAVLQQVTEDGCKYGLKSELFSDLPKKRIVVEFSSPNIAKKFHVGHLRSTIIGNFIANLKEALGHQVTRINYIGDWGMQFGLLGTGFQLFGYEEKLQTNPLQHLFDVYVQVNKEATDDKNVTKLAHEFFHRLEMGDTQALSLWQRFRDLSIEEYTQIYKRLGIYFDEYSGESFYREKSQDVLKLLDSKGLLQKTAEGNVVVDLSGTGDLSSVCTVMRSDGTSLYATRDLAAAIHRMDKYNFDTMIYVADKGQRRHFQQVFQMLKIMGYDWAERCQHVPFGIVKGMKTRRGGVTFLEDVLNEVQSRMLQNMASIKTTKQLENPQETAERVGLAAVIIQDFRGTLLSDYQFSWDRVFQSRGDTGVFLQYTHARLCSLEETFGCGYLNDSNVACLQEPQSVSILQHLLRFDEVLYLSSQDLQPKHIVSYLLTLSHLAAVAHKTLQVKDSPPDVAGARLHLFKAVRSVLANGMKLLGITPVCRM
UniProt Q08122: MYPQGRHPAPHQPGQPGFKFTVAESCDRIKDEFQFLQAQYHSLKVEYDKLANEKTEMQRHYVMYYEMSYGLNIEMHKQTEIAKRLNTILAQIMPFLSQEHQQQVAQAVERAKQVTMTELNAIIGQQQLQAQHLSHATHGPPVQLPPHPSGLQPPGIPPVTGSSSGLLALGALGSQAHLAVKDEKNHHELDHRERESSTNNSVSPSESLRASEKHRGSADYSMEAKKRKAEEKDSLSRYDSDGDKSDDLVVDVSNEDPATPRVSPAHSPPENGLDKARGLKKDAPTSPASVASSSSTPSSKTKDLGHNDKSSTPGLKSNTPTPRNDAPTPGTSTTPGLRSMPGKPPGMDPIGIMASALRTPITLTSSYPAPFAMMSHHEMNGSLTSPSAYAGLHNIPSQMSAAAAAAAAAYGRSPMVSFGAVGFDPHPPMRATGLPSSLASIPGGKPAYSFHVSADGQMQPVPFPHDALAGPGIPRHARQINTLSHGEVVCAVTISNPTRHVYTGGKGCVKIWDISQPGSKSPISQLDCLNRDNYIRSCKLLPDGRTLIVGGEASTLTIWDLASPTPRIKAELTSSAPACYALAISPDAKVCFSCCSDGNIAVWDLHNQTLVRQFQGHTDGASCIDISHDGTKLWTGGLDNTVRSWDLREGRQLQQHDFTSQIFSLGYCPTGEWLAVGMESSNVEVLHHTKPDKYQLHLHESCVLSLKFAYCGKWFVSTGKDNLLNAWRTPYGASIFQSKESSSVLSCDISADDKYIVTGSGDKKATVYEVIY
UniProt Q3TFQ1: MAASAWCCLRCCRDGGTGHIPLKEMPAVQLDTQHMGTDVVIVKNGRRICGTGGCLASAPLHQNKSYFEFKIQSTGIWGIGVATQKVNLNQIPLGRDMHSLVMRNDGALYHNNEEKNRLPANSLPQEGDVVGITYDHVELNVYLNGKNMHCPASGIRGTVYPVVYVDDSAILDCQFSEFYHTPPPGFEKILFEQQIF
UniProt Q1WG82: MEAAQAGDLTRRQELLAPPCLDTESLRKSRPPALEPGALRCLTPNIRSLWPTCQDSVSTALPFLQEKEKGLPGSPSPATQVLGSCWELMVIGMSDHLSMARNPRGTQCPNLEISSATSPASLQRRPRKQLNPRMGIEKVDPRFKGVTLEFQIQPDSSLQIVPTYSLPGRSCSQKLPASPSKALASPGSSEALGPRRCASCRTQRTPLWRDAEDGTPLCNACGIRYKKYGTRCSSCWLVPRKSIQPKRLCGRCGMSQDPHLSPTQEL

Compound in the assay: CN[C@@H]1C[C@H]2O[C@@](C)([C@@H]1OC)n1c3ccccc3c3c4c(c5c6ccccc6n2c5c31)C(=O)NC4 [staurosporine]
Kind of assay: log2 fold change of tryptic peptide abundance, ligand vs vehicle (limited proteolysis) (log2 ratio); higher = more trypsin-susceptible (destabilized). The note with it: ligand concentration: 20 uM; sample: mouse liver crude lysate; replicate design: treated separately.
On to “UniProt Q3TMV7 (peptide sequence: ADYVGSALGPDWHGGLALK, peptide start residue: 225)”, for which the log2 fold change was -0.372.

On to “UniProt Q3T9X0 (peptide sequence: THAEISQAFAK, peptide start residue: 487)”, for which the log2 fold change is -0.286.

As to “UniProt Q2YFS3 (peptide sequence: AEIPAREPLETSEK, peptide start residue: 230)”, the log2 fold change is -0.0279.

Take “UniProt Q06986 (peptide sequence: LSCCPTCR, peptide start residue: 109)”: the log2 fold change is 0.244.

In the case of “UniProt Q08091 (peptide sequence: GASQAGMTAPGTK, peptide start residue: 213)”, the log2 fold change was determined as 0.137.

Turning to “UniProt Q3TIV5 (peptide sequence: EKIIEDK, peptide start residue: 21)”, the log2 fold change is -0.199.

Take “UniProt Q07079 (peptide sequence: HMEASLQEFK, peptide start residue: 194)”: the log2 fold change stood at 0.0633.

Turning to “UniProt Q3TCX3 (peptide sequence: FTEELPDER, peptide start residue: 462)”, the log2 fold change was determined as 0.335.

Regarding “UniProt Q03142 (peptide sequence: KLHAVPAGNTVK, peptide start residue: 155)”, the log2 fold change is -0.585.

Consider “UniProt Q3TYX3 (peptide sequence: TANQEQAIVHK, peptide start residue: 196)”, for which the log2 fold change is -0.0392.

With “UniProt Q3TES0 (peptide sequence: VQGEAQKVER, peptide start residue: 615)”, the log2 fold change was found to be 0.0211.

For the target “UniProt Q05816 (peptide sequence: ASLKDLEGKWR, peptide start residue: 2)”, the log2 fold change is 0.274.

Regarding “UniProt Q3TPX4 (peptide sequence: GGPEAFDPKR, peptide start residue: 32)”, the log2 fold change stood at 0.417.

Regarding “UniProt Q31125 (peptide sequence: DGPVKPQSPEEEK, peptide start residue: 305)”, the log2 fold change stood at 0.578.

Take “UniProt Q06194 (peptide sequence: DNILSMENDR, peptide start residue: 983)”: the log2 fold change stood at 0.0974.

Turning to “UniProt Q33DR2 (peptide sequence: GLYEDIRK, peptide start residue: 99)”, the log2 fold change came out at 0.129.

Turning to “UniProt Q06138 (peptide sequence: LMMNLLR, peptide start residue: 257)”, the log2 fold change was 0.11.

Take “UniProt Q06335 (peptide sequence: HYQHVLAVDPEKAAQMK, peptide start residue: 454)”: the log2 fold change was -0.468.

Turning to “UniProt Q05AH6 (peptide sequence: GTLDLQVIR, peptide start residue: 319)”, the log2 fold change was determined as 0.542.

Turning to “UniProt Q3TQB2 (peptide sequence: VWPHLVQR, peptide start residue: 388)”, the log2 fold change amounted to 0.45.

For the target “UniProt Q3TL26 (peptide sequence: TFIPHLEPLQR, peptide start residue: 127)”, the log2 fold change was found to be 0.73.

Consider “UniProt Q3U0K8 (peptide sequence: RPADPGPARPMK, peptide start residue: 5)”, for which the log2 fold change is -0.0305.

For the target “UniProt Q3U276 (peptide sequence: SGHATAMGTFVRPR, peptide start residue: 66)”, the log2 fold change is -0.0713.

For the target “UniProt Q3U186 (peptide sequence: VLALPPESLIK, peptide start residue: 16)”, the log2 fold change came out at 0.476.

For “UniProt Q3TSG4 (peptide sequence: ILEMDKEENRR, peptide start residue: 340)”, the log2 fold change is -0.177.

As for “UniProt Q08122 (peptide sequence: FTVAESCDR, peptide start residue: 20)”, the log2 fold change is -0.666.

On to “UniProt Q3TFQ1 (peptide sequence: DGGTGHIPLK, peptide start residue: 14)”, for which the log2 fold change worked out at 0.553.

“UniProt Q1WG82 (peptide sequence: RCASCRTQR, peptide start residue: 196)”: the log2 fold change is -0.0133.

On to “UniProt Q3TQI7 (peptide sequence: LLAEQQNK, peptide start residue: 197)”, for which the log2 fold change was -0.178.

As for “UniProt Q04447 (peptide sequence: GIWHNDNK, peptide start residue: 216)”, the log2 fold change was 0.274.

As for “UniProt Q3U1J4 (peptide sequence: TVPLYESPR, peptide start residue: 714)”, the log2 fold change is 0.251.

The values are drawn from the supplement of paper PMC12819154, “High-throughput peptide-centric local stability assay extends protein–ligand identification to membrane proteins, tissues and bacteria” (Nature Structural & Molecular Biology, 2025).
